For at least one compound, name, drawing or mass did not settle the structure.
System: primary CLL cells
Experiment: CellTiter-Glo ATP-based luminescent assay, intracellular ATP depletion
Type: cell-based, human
Conditions: beta-adrenoceptor agonists, by comparison to isoproterenol
Procedure: Primary CLL cells were treated with 3 uM isoproterenol (IC50 determined with Cell-titer Glo® assay) for 24 hr. Cell death markers for apoptosis (cleaved PARP, cleaved caspase 3 and caspase 9) and autophagy (accumulation of LC3 II) were assessed by western blotting. The […] phosphodiesterase inhibitor, IBMX, was used as a positive control because it induces apoptosis in CLL B cells.
CellTiter-Glo® Luminescent Cell Viability Assay is a homogeneous method for determining the number of viable cells in culture based on quantitation of the ATP present, an indicator of metabolically active cells.
ATP depletion in CLL cells was measured by the ATP-based luminescent assay CellTiter-Glo®.
Isoproterenol-induced intercellular ATP depletion was determined by the ATP-based luminescent assay CellTiter-Glo®. The efficiency of isoproterenol in depleting intracellular ATP is represented by the dose response curves shown by FIGS. 3B, 3D and 3F respectively.

`CCc1cc2c(cc1CC)CC(NC[C@H](O)c1ccc(O)c3[nH]c(=O)ccc13)C2` [Indacaterol] was tested, and the “effect on intracellular ATP level” value was “moderate ATP depletion”.

From patent US11052101B2, “Methods for treating cancer using purine analogs by depleting intracellular ATP” (National Guard Health Affairs, priority 2019, dated 2021)
